Measurements reported in PubChem BioAssay AID1259425 (University of Nebraska Medical Center, 2018).
Shown is one part, drawn at random, of about 14,000 reagents. Further read-outs or replicates are left out here. The record does not give: the time to read-out.

Test: 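Seek colon cancer weak points whose silencing resembles KSR1 loss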 (primary screen)
Cells: HCT116 human colon cancer cells
Knock-down reagent: siRNA pool against human genes, 50 nM siRNA
Detection: 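mRNA of six signature genes measured together by branched-DNA assay after 50 nM siRNA pool, blank removed, divided by geometric mean of two housekeeping genes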
Direction: BNIP3L mRNA: higher = more BNIP3L transcript after knockdown; NDRG1 mRNA: higher = more NDRG1 transcript after knockdown

MAP6 (microtubule associated protein 6)
- BNIP3L mRNA, set 1: 0.0706
- NDRG1 mRNA, set 1: 0.26

PLPP1 (phospholipid phosphatase 1)
- BNIP3L mRNA, set 1: 0.142
- NDRG1 mRNA, set 1: 0.188

TMEM147 (transmembrane protein 147)
- BNIP3L mRNA, set 1: 0.102
- NDRG1 mRNA, set 1: 0.594

KIAA0930
- BNIP3L mRNA, set 1: 0.11
- NDRG1 mRNA, set 1: 0.133

TSPAN15 (tetraspanin 15)
- BNIP3L mRNA, set 1: 0.0346
- NDRG1 mRNA, set 1: 0.176

LBX1 (ladybird homeobox 1)
- BNIP3L mRNA, set 1: 0.0824
- NDRG1 mRNA, set 1: 0.418

RAMAC (RNA guanine-7 methyltransferase activating subunit)
- BNIP3L mRNA, set 1: 0.101
- NDRG1 mRNA, set 1: 0.187

FGF13 (fibroblast growth factor 13)
- BNIP3L mRNA, set 1: 0.103
- NDRG1 mRNA, set 1: 0.0833

CBX6 (chromobox 6)
- BNIP3L mRNA, set 1: 0.111
- NDRG1 mRNA, set 1: 0.169

TSN (translin)
- BNIP3L mRNA, set 1: 0.125
- NDRG1 mRNA, set 1: 0.108

NAA25 (N-alpha-acetyltransferase 25, NatB auxiliary subunit)
- BNIP3L mRNA, set 1: 0.166
- NDRG1 mRNA, set 1: 0.466

MRPL51 (mitochondrial ribosomal protein L51)
- BNIP3L mRNA, set 1: 0.0945
- NDRG1 mRNA, set 1: 0.138

ADA2 (adenosine deaminase 2)
- BNIP3L mRNA, set 1: 0.27
- NDRG1 mRNA, set 1: 0.405

RGS19 (regulator of G protein signaling 19)
- BNIP3L mRNA, set 1: 0.228
- NDRG1 mRNA, set 1: 0.19

ZNF671 (zinc finger protein 671)
- BNIP3L mRNA, set 1: 0.0774
- NDRG1 mRNA, set 1: 0.34

MRPL2 (mitochondrial ribosomal protein L2)
- BNIP3L mRNA, set 1: 0.136
- NDRG1 mRNA, set 1: 2.12

UBA52 (ubiquitin A-52 residue ribosomal protein fusion product 1)
- BNIP3L mRNA, set 1: 0.0749
- NDRG1 mRNA, set 1: 0.212

APBA1 (amyloid beta precursor protein binding family A member 1)
- BNIP3L mRNA, set 1: 0.156
- NDRG1 mRNA, set 1: 0.535

OMP (olfactory marker protein)
- BNIP3L mRNA, set 1: 0.17
- NDRG1 mRNA, set 1: 1.31

CST2 (cystatin SA)
- BNIP3L mRNA, set 1: 0.101
- NDRG1 mRNA, set 1: 0.257

TMEM254 (transmembrane protein 254)
- BNIP3L mRNA, set 1: 0.119
- NDRG1 mRNA, set 1: 0.33

PGS1 (phosphatidylglycerophosphate synthase 1)
- BNIP3L mRNA, set 1: 0.208
- NDRG1 mRNA, set 1: 0.235

ANGPTL3 (angiopoietin like 3)
- BNIP3L mRNA, set 1: 0.0878
- NDRG1 mRNA, set 1: 0.108

ADM (adrenomedullin)
- BNIP3L mRNA, set 1: 0.16
- NDRG1 mRNA, set 1: 0.111

SIAH1 (siah E3 ubiquitin protein ligase 1)
- BNIP3L mRNA, set 1: 0.0518
- NDRG1 mRNA, set 1: 0.0665

TTC19 (tetratricopeptide repeat domain 19)
- BNIP3L mRNA, set 1: 0.054
- NDRG1 mRNA, set 1: 0.247

POLR2K (RNA polymerase II, I and III subunit K)
- BNIP3L mRNA, set 1: 0.0908
- NDRG1 mRNA, set 1: 0.861

ANKMY2 (ankyrin repeat and MYND domain containing 2)
- BNIP3L mRNA, set 1: 0.181
- NDRG1 mRNA, set 1: 0.391

Limited to “NDRG1 mRNA, set 1”, for 4 of the entries above:
MRPL2 (mitochondrial ribosomal protein L2): 2.12
UBA52 (ubiquitin A-52 residue ribosomal protein fusion product 1): 0.212
APBA1 (amyloid beta precursor protein binding family A member 1): 0.535
OMP (olfactory marker protein): 1.31
